This is an account of results in patent publication US20260231590A1, “AROMATIC COMPOUND, ORGANIC SEMICONDUCTOR LAYER AND ORGANIC THIN FILM TRANSISTOR” (TOSOH CORPORATION, priority 2023, published 2026).

The first data set is described as follows: Transmission characteristics of bottom gate-bottom contact p-type organic thin film transistor (drop casting). To be noted: drop casting from 0.20% by weight toluene solution, materials and methods of Example 25. As for the experimental part: The evaluation of the transmission characteristics of the aromatic compounds was performed using a semiconductor parameter analyzer.
• Instrument; Manufactured by Keithley Instruments, Inc., model; 4200A-SCS • Drain voltage; −20 V • Gate voltage; 10 V to −20 V.
Using the resulting solution for forming an organic semiconductor layer, a bottom gate-bottom contact p-type organic thin film transistor was fabricated.
On to `CCCCCCCCc1cc2ccc3cc4c(ccc5cc(CCCCCCCC)sc54)cc3c2s1` [2,8-dioctylanthra[1,2-b:5,6-b′]dithiophene, reference compound], for which the “thin film formation for transistor fabrication” value was “No thin film”.

The same data set, now with this note: drop-cast film from 0.20% by weight toluene solution; drain voltage −20 V, gate voltage 10 V to −20 V.
`c1cc2cc(CCC3CCCCC3)sc2c2cc3ccc4cc(CCC5CCCC5)sc4c3cc12` [Compound 14, 2-(2-Cyclohexylethyl)-8-(2-cyclopentylethyl)anthra[1,2-b:5,6-b′]dithiophene] yielded a hole carrier mobility of 0.20 cm^2/V·sec.

`c1cc2cc(CCC3CCCCC3)sc2c2c1-c1c-2ccc2cc(CCC3CCCCC3)sc12` [Compound 20, 2,7-Bis(2-cyclohexylethyl)biphenyleno[1,2-b:5,6-b′]dithiophene]: the hole carrier mobility was found to be 0.22 cm^2/V·sec.

The molecule `c1cc2cc(CCC3CCCCC3)sc2c2cc3ccc4cc(CCC5CCCCC5)sc4c3cc12` [Compound 2, 2,8-Di(2-cyclohexylethyl)anthra[1,2-b:5,6-b′]dithiophene] showed a hole carrier mobility of 1.46 cm^2/V·sec.

`CCCCCCc1cc2ccc3cc4c(ccc5cc(CCC6CCCCC6)sc54)cc3c2s1` [Compound 8, 2-(2-Cyclohexylethyl)-8-hexylanthra[1,2-b:5,6-b′]dithiophene] registered a hole carrier mobility of 1.67 cm^2/V·sec.

For `c1cc2cc(CCC3CCCC3)sc2c2cc3ccc4cc(CCC5CCCC5)sc4c3cc12` [Compound 10, 2,8-Di(2-cyclopentylethyl)anthra[1,2-b:5,6-b′]dithiophene], the hole carrier mobility was 3.33 cm^2/V·sec.

`CCCCCCCCc1ccc(CCc2cc3ccc4cc5c(ccc6cc(CCC7CCCCC7)sc65)cc4c3s2)cc1` [Compound 40, 2-(2-Cyclohexylethyl)-8-(4-octylphenylethyl)anthra[1,2-b:5,6-b′]dithiophene] showed a hole carrier mobility of 0.66 cm^2/V·sec.

`CCCCCCc1cc2ccc3cc4c(ccc5cc(CCCC6CCCC6)sc54)cc3c2s1` [Compound 31, 2-(3-Cyclopentylpropyl)-8-hexylanthra[1,2-b:5,6-b′]dithiophene] displayed a hole carrier mobility of 0.49 cm^2/V·sec.

In turn, `CCCCCc1cc2ccc3cc4c(ccc5cc(CCCC6CCCCC6)sc54)cc3c2s1` [Compound 25, 2-(3-Cyclohexylpropyl)-8-pentylanthra[1,2-b:5,6-b′]dithiophene] came in with a hole carrier mobility of 1.18 cm^2/V·sec.

Take `CCCCCCc1cc2ccc3cc4c(ccc5cc(CCC6CCCC6)sc54)cc3c2s1` [Compound 13, 2-(2-Cyclopentylethyl)-8-hexylanthra[1,2-b:5,6-b′]dithiophene]: the hole carrier mobility is on record as 1.17 cm^2/V·sec.

`CC(C)Cc1cc2ccc3cc4c(ccc5cc(CCC6CCCC6)sc54)cc3c2s1` [Compound 12, 2-(2-Cyclopentylethyl)-8-isobutylanthra[1,2-b:5,6-b′]dithiophene] gave a hole carrier mobility of 0.22 cm^2/V·sec.

`CCCCCCc1cc2ccc3cc4c(ccc5cc(CCCC6CCCCC6)sc54)cc3c2s1` [Compound 18, 2-(3-Cyclohexylpropyl)-8-hexylanthra[1,2-b:5,6-b′]dithiophene]: the hole carrier mobility is on record as 0.48 cm^2/V·sec.
